Results are given in words; binding and its absence hold for the method and conditions named. A result given as binding can be weak or reduced; the word gives no strength.
Target: Protease1(N) (Bacillus)
Assay: crystal structure

binding: binds
Binder: LFRAL [LFRAL peptide]
